This is an account of results in US8470805B2, “Processes for preparing piperazinium salts of KMUP and use thereof” (Kaohsiung Medical University, priority 2009, dated 2013).

The test system of the series is STZ-induced diabetic rats. Kind of series: Serum glucose and body weight in streptozosin (STZ)-induced diabetic rats. The class given is in vivo. The settings on record: after 21 days. On the procedure:
2. The effect of KMUP-1 on decreasing the amount of the serum glucose in streptozosin (STZ)-induced diabetic rats
60 mg/kg of streptozosin is injected intravenously for inducing the STZ-induced rats, and the KMUP-1 HCl salt (0.5, 1.5, 2.5 and 5 mg/kg) and KMUP-1-Simvastatinic acid (5 mg/kg) are administered orally. After 21 days, the amount of the serum glucose (mg/dl), the amount of the serum insulin (mg/dl), the body weight (g) and the change of the body weight are measured.

For the compound `Cl.Cn1c(=O)c2c(ncn2CCN2CCN(c3ccccc3Cl)CC2)n(C)c1=O` [KMUP-1 HCl salt, 7-[2-[4-(2-chlorobenzene)piperazinyl]ethyl]-1,3-dimethyl xanthine HCl], the Body weight runs as follows: (0.5 mg/kg orally) 312.2 ± 8.9 g; (1.5 mg/kg orally) 310.2 ± 7.4 g; (2.5 mg/kg orally) 308.2 ± 8.4 g; (5 mg/kg orally) 301.3 ± 11.7 g.
